Drawing on PubChem BioAssay AID330 (DTP/NCI, 2004), this text covers T/C and survivor count for 20 compounds.

The assay deals with P388 leukemia ip, CD2F1 mice, survival T/C. Put plainly: NCI In Vivo Anticancer Drug Screen. Data for tumor model P388 Leukemia (intraperitoneal) in CD2F1 (CDF1) mice. As to conditions: T/C endpoint: median survival time, higher T/C = longer survival.
[1] abbreviates: dose: 100.0 mg/kg/injection, schedule: Q01DX009 (ip), vehicle: saline with Tween-80.
Where [2] appears, read: dose: 4.0 mg/kg/injection, schedule: Q01DX009 (ip), vehicle: saline + alcohol.
Setting [3] is: dose: 25.0 mg/kg/injection, schedule: Q01DX009 (ip), vehicle: Klucel (hydroxypropylcellulose) (HPC).
Where [4] appears, read: dose: 50.0 mg/kg/injection, schedule: Q01DX009 (ip), vehicle: Klucel (hydroxypropylcellulose) (HPC).
Setting [5] is: dose: 100.0 mg/kg/injection, schedule: Q01DX009 (ip), vehicle: Klucel (hydroxypropylcellulose) (HPC).
Where [6] appears, read: dose: 200.0 mg/kg/injection, schedule: Q01DX009 (ip), vehicle: Klucel (hydroxypropylcellulose) (HPC).

The list shows only some results of the screen, not a fair sample: it gathers tests that were run many times, whatever their T/C, doses with no T/C, and many T/C values between a quarter and a half above the control. Further doses and runs are listed elsewhere. T/C gives the treated animals as a percentage of the vehicle group. Some doses have a count of surviving animals in place of a T/C: the source files T/C as zero there, which appears to mark a toxic dose or a test without result, not a measured value. Some doses without a T/C left all or most animals alive at the check, yet need not have been tolerated: the source hardly ever lists a survival T/C far under the control, and the zero likely stands for such cases as well. Counts of survivors are from the toxicity check (mostly the fifth day) where no day follows; animals may have died later. Schedules are NCI's codes, read here as Q, the interval in days (D) or hours (H), X, the number of doses. Some entries hold several experiments; their values stand side by side, smallest first. Where survival is the endpoint, this PubChem deposit counts one and a half times the control or more as active, and values a quarter to a half above the control carry no call in these data; other NCI protocols may use other cut-offs. Some T/C values are followed by the survivors on the day toxicity was checked, most often the fifth; without a count, all were alive then.

Turning to `CCOC(OCC)C(=O)OCC(=O)[C@]1(O)Cc2c(O)c3c(c(O)c2[C@@H](OC2CC(N)C(O)C(C)O2)C1)C(=O)c1c(OC)cccc1C3=O` (stereo not given in full), the T/C is, setting by setting: (dose: 0.13 mg/kg/injection, schedule: Q01DX009 (ip), vehicle: saline) 135 % of control; (dose: 0.25 mg/kg/injection, schedule: Q01DX009 (ip), vehicle: saline) 144 % of control; (dose: 0.5 mg/kg/injection, schedule: Q03HX008 (ip), vehicle: saline) 126 % of control; (dose: 1.0 mg/kg/injection, schedule: Q03HX008 (ip), vehicle: saline) 129 % of control; (dose: 2.0 mg/kg/injection, schedule: Q03HX008 (ip), vehicle: saline) 145 % of control; (dose: 4.0 mg/kg/injection, schedule: Q01DX001 (ip), vehicle: saline) 137 % of control. Further, the T/C (dose: 8.0 mg/kg/injection, schedule: Q01DX001 (ip), vehicle: saline) was 146 % of control. Also, for the setting “dose: 8.0 mg/kg/injection, schedule: Q01DX009 (ip), vehicle: saline”, the survivor count was 8 of 8.

Consider `COc1ccc2sc3c(C)ccc(NCCN(C)C)c3c(=O)c2c1`, for which the T/C under setting [1] was 135 % of control. Further, the survivor count (dose: 200.0 mg/kg/injection, schedule: Q01DX009 (ip), vehicle: saline with Tween-80) is reported as 6 of 6.

With `O=C(NC1CC1)OCc1c(COC(=O)NC2CC2)c(-c2ccc(Cl)c(Cl)c2)n2c1CCC2`, the T/C was 135 % of control (dose: 1.56 mg/kg/injection, schedule: Q01DX009 (ip), vehicle: distilled water + Tween-80); 144 % of control (dose: 3.13 mg/kg/injection, schedule: Q01DX009 (ip), vehicle: distilled water + Tween-80); 148 % of control (dose: 6.25 mg/kg/injection, schedule: Q01DX009 (ip), vehicle: distilled water + Tween-80). Moreover, the survivor count was 5 of 6 and 6 of 6 (dose: 50.0 mg/kg/injection, schedule: Q01DX009 (ip), vehicle: distilled water + Tween-80); 2 of 6 (dose: 100.0 mg/kg/injection, schedule: Q01DX009 (ip), vehicle: distilled water + Tween-80); 1 of 6 (dose: 200.0 mg/kg/injection, schedule: Q01DX009 (ip), vehicle: distilled water + Tween-80).

As for `COC(=O)[C@@]12OC[C@]34[C@H]([C@@H](O)[C@@H]1O)[C@@]1(C)CC(=O)C(O)=C(C)[C@@H]1C[C@H]3OC(=O)[C@H](OC(=O)/C=C(\C)C(C)CO)[C@@H]24` (stereo not given in full), the T/C is 143 % of control (dose: 0.5 mg/kg/injection, schedule: Q01DX009 (ip), vehicle: saline + alcohol); 126 and 145 % of control (dose: 2.0 mg/kg/injection, schedule: Q01DX009 (ip), vehicle: saline + alcohol); 130 % of control [4 of 6 alive] under setting [2]. Moreover, the survivor count under setting [2] is recorded as 2 of 6.

For `[Cu+2].[O-]c1ccc(Br)c2cccnc12.[O-]c1ccc(Br)c2cccnc12`, the survivor count was 5 of 6 (dose: 50.0 mg/kg/injection, schedule: Q04DX003 (ip), vehicle: saline with Tween-80); 5 of 6 (dose: 75.0 mg/kg/injection, schedule: Q04DX003 (ip), vehicle: saline with Tween-80); 6 of 6 (dose: 100.0 mg/kg/injection, schedule: Q04DX003 (ip), vehicle: saline with Tween-80); 1 of 6 (dose: 200.0 mg/kg/injection, schedule: Q04DX003 (ip), vehicle: saline with Tween-80); 1 of 6 (dose: 400.0 mg/kg/injection, schedule: Q04DX003 (ip), vehicle: saline with Tween-80).

For the compound `COc1ccc(Cc2nc(C)cc3cc(OC)c(OC)cc23)cc1OC`, where the note is “dose: 400.0 mg/kg/injection, schedule: Q01DX009 (ip), vehicle: water”, the survivor count is given as 0 of 6.

As for `CC(=O)ON1C(=O)C=CC1=O`, the survivor count runs as follows: (dose: 25.0 mg/kg/injection, schedule: Q01DX009 (ip), vehicle: water) 6 of 6; (dose: 50.0 mg/kg/injection, schedule: Q01DX009 (ip), vehicle: water) 6 of 6.

Regarding `Clc1ccc(-n2ccc(=N/N=C/c3ccc(Cl)c(Cl)c3)cc2)cc1`, the survivor count runs as follows: (dose: 200.0 mg/kg/injection, schedule: Q01DX001 (ip), vehicle: Klucel (hydroxypropylcellulose) (HPC)) 1 of 6; (dose: 400.0 mg/kg/injection, schedule: Q01DX001 (ip), vehicle: Klucel (hydroxypropylcellulose) (HPC)) 0 of 6.

Consider `Nc1nc(N)c2c(n1)NCN(OCCOc1ccc(Cl)cc1Cl)C2`, for which the survivor count (dose: 240.0 mg/kg/injection, schedule: Q01DX005 (ip), vehicle: saline with Tween-80) is listed as 3 of 6.

Take `CCN(CC)CCCC(C)NC(=S)N/N=C(\C)c1ccccn1` (stereo not given): the T/C (dose: 100.0 mg/kg/injection, schedule: Q01DX009 (ip), vehicle: saline) was 128 and 133 % of control. In addition, the survivor count is 2 of 6 (dose: 200.0 mg/kg/injection, schedule: Q01DX009 (ip), vehicle: saline) and 0 of 6 (dose: 400.0 mg/kg/injection, schedule: Q01DX009 (ip), vehicle: saline).

In the case of `C[As](C)SCCC(N)C(=O)NC(CCS[As](C)C)C(=O)O` (stereo not given), the T/C was 125 % of control under setting [3]; 125 and 133 % of control under setting [4]; 131 and 144 % of control under setting [5]. Moreover, the survivor count under setting [6] was 5 of 6.

Consider `C[S+](C)CCCNC(=O)c1csc(-c2csc(N)n2)n1`, for which the survivor count (dose: 50.0 mg/kg/injection, schedule: Q01DX005 (ip), vehicle: water) was 0 of 6; the survivor count (dose: 100.0 mg/kg/injection, schedule: Q01DX005 (ip), vehicle: water) is recorded as 0 of 6; the survivor count (dose: 200.0 mg/kg/injection, schedule: Q01DX005 (ip), vehicle: water) is reported as 0 of 6.

In the case of `Oc1ccccc1C=NCCCN=Cc1ccccc1O`, under setting [1], the survivor count was 6 of 6.

On to `NC(Cc1ccc(N(CCCl)CCCl)cc1)C(=O)O` (stereo not given), for which the survivor count (dose: 12.5 mg/kg/injection, schedule: Q01DX009 (ip), vehicle: Klucel (hydroxypropylcellulose) (HPC)) was 6 of 6; the survivor count under setting [3] is 1 of 6; the survivor count under setting [4] was 2 of 6; the survivor count under setting [5] is 0 of 6; the survivor count under setting [6] was 0 of 6.

Take `Nc1ccc(Cl)cc1N`: the survivor count reads like this: (dose: 400.0 mg/kg/injection, schedule: Q01DX009 (ip), vehicle: other) 0 of 6; (dose: 400.0 mg/kg/injection, schedule: Q01DX009 (ip), vehicle: saline with Tween-80) 0 of 6 and 5 of 6.

For `CCOC(=O)N1C=CC2(C=C1)CCCCC2`, the survivor count (dose: 100.0 mg/kg/injection, schedule: Q04DX003 (ip), vehicle: Klucel (hydroxypropylcellulose) (HPC)) is given as 4 of 6.

On to `C1=C(c2ccccc2)OC(c2ccccc2)=C[P+]1(c1ccccc1)c1ccccc1`, for which the T/C was 128 % of control (dose: 0.78 mg/kg/injection, schedule: Q01DX005 (ip), vehicle: saline); 138 % of control (dose: 1.56 mg/kg/injection, schedule: Q01DX005 (ip), vehicle: saline); 130 % of control (dose: 3.12 mg/kg/injection, schedule: Q01DX005 (ip), vehicle: saline). Moreover, the survivor count is, setting by setting: (dose: 6.25 mg/kg/injection, schedule: Q01DX005 (ip), vehicle: saline) 1 of 5; (dose: 12.5 mg/kg/injection, schedule: Q01DX005 (ip), vehicle: saline with Tween-80) 4 of 5; (dose: 25.0 mg/kg/injection, schedule: Q01DX005 (ip), vehicle: saline with Tween-80) 0 of 5; (dose: 50.0 mg/kg/injection, schedule: Q01DX005 (ip), vehicle: saline with Tween-80) 0 of 5.

With `C/C=C/N=NNc1ccc(OC)cc1`, for the setting “dose: 400.0 mg/kg/injection, schedule: Q04DX003 (ip), vehicle: saline + Tween-80 + alcohol”, the survivor count is given as 4 of 6.

As to `Cc1ccc(S(=O)(=O)OC2C(O)CC(=O)C(OC(=O)c3ccccc3)C2OC(=O)c2ccccc2)cc1` (stereo not given), the survivor count (dose: 200.0 mg/kg/injection, schedule: Q01DX001 (ip), vehicle: saline with Tween-80) was 6 of 6.

`CN(C)C1C(=O)C(C(N)=O)=C(O)C2(O)C(=O)C3=C(O)c4c(O)cccc4C(C)(O)C3CC12` (stereo not given): for the setting “dose: 200.0 mg/kg/injection, schedule: Q01DX005 (ip), vehicle: Klucel (hydroxypropylcellulose) (HPC)”, the survivor count is recorded as 5 of 6.
